Primary screen of a compound library

Chains of the proteins cited; added tags and fusions are not shown. Residues count along the entry.
UniProt A4I591, 1-473: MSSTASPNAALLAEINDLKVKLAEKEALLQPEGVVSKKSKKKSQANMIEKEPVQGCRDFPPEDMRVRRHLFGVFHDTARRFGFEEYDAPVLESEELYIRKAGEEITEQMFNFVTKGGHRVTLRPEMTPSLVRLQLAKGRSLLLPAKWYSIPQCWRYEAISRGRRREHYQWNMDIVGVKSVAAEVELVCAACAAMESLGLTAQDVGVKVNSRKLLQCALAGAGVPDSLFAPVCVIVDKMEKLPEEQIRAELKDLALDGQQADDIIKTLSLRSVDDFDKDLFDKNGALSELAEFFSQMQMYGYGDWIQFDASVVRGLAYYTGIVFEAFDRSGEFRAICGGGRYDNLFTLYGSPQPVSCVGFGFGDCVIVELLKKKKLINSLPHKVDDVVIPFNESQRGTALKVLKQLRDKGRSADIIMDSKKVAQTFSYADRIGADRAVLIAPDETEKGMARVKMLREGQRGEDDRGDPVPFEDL
UniProt P9WNZ1, whole entry: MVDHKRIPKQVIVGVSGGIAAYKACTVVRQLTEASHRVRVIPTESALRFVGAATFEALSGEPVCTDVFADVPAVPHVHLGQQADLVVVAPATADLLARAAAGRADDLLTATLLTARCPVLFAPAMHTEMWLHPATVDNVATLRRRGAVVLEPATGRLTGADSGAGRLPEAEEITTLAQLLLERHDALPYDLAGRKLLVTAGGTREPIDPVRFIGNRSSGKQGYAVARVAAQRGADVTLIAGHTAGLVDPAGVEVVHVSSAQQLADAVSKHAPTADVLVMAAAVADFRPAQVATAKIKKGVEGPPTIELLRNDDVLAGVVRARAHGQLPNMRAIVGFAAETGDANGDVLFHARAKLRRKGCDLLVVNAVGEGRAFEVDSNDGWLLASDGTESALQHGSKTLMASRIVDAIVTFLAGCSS
UniProt Q8IDJ8, 1-583: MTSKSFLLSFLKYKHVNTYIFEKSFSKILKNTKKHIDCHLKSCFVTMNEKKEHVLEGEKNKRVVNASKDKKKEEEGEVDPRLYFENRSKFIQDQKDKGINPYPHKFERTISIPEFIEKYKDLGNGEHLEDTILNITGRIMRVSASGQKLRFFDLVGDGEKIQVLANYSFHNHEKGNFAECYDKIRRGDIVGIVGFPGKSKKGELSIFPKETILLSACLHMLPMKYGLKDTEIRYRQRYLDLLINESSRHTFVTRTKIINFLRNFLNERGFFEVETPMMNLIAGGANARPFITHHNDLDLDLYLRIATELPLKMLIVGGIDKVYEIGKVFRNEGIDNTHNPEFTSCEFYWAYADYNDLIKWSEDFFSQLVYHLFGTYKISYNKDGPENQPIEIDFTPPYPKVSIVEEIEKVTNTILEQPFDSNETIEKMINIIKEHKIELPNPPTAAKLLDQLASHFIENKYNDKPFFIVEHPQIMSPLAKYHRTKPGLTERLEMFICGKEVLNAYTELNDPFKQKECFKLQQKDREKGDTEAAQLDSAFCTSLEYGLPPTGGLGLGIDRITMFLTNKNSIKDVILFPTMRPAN
UniProt P9WFT3, whole entry: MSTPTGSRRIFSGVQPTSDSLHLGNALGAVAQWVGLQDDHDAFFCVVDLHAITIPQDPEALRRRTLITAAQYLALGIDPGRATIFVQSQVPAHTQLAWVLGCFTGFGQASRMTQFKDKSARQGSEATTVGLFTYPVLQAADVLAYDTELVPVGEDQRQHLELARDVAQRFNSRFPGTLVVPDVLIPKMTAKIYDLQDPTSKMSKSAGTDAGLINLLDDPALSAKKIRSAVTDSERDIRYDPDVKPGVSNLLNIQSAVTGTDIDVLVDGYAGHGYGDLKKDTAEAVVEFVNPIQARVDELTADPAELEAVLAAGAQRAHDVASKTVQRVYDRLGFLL

Values are the deposited “Percent Effect”, in %.
How 0% and 100% were set is not recorded. Most values in the screen are low, and negative values occur.
This is an unselected part of the compounds tested.
A dash means the value is not listed here; it may have been measured.

LiHisRS: 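Enzyme assay of histidyl-tRNA synthetase; the read-out is not stated. Target: Histidine-tRNA ligase, Leishmania infantum (UniProt A4I591). Compounds at 30 µM. Direction is inferred from retests: higher values go with stronger inhibition. The assay is labelled LdHisRS but filed under L. infantum. Of about 69,000 compounds tested this way, about 410 (0.6%) reached 50% or more in at least one test.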
CoaBC: 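Enzyme assay of CoaBC with a phosphate dye (Biomol Green) read at 650 nm. Target: Coenzyme A biosynthesis protein CoaBC, Mycobacterium tuberculosis (UniProt P9WNZ1). Concentration: 30 µM. Direction is inferred from only a few compounds that gave an IC50; most scored high, so higher reads as stronger inhibition. Most strong results did not repeat in a second test. Size under these conditions: about 67,000 compounds, about 40 of them at 50% or above in at least one test.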
PfKRS1: 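Enzyme assay of the cytosolic lysyl-tRNA synthetase in 384-well plates, read by luminescence. Target: Lysine-tRNA ligase, Plasmodium falciparum 3D7 (UniProt Q8IDJ8). Concentration: 30 µM. Higher reads as stronger inhibition, judged from the few compounds that gave an IC50. Of about 69,000 compounds tested this way, about 49 (0.071%) reached 50% or more in at least one test.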
MtTrpRS: 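Tryptophan-tRNA ligase, Mycobacterium tuberculosis (UniProt P9WFT3). Enzyme assay of tryptophanyl-tRNA synthetase; the read-out is not stated. Compounds at 10 µM. Direction is not recorded; retested compounds ran higher, which suggests that high means inhibition. About 65,000 compounds were tested under these conditions; 0.098% (about 64) showed 50% or more at least once.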

structure	LiHisRS	CoaBC	PfKRS1	MtTrpRS
COc1ncc(NS(=O)(=O)c2ccc(F)c(F)c2)c(OC)n1	8.475	1.882	4.628	1.814
Cc1cc(CN(CCO)c2ccc(Br)cc2)on1	3.39	1.129	2.435	0.3943
CCNc1ccnc(N2CCN(Cc3ncccc3C)CC2)n1	8	-4.132	-0.4412	-5.126
Cn1cc(C(=O)NCc2cn3c(n2)CN(Cc2ccccn2)CC3)cn1	11.54	8.489	4.42	-2.439
CCC(NC(=O)c1cccc(N2CCCC2=O)c1)c1ccc(OC)cc1 (centres unmarked)	10.53	3.629	5.347	-8.212
CCOc1ccccc1C(CC(=O)Nc1ccccn1)NC(C)=O (centres unmarked)	5.357	4.183	-1.651	-3.955
COc1ccnc(NC(=O)c2cscn2)c1	13.13	1.449	1.28	-20.73
Cc1cccc(CN(Cc2ccccn2)S(=O)(=O)N(C)C)c1	22.45	7.348	-0.462	12.84
Cc1cc(CN2CCN(CC(=O)NC3(C#N)CCCCC3)CC2)on1	-4.167	-0.2404	-1.615	-5.251
Cc1noc(C)c1CN1CCN(Cc2ccncc2)c2ncccc2C1	12.41	2.591	2.896	6.696
Cc1nnc2n1CCN(Cc1csc(Cc3ccccc3)n1)C2	18.46	14.5	2.94	-0.8746
c1ccc(-c2nc(CN3CCOC(Cn4cccn4)C3)cs2)cc1 (centres unmarked)	19.35	4.156	2.433	-3.994
CC1CCN(CCCNS(=O)(=O)c2cc(F)cc(F)c2)CC1	18.28	8.404	-3.647	0.1432
COCC(=O)Nc1cnc(N2CCN(c3ccccc3)CC2)nc1	15.25	3.639	5.575	2.129
O=C(c1ccc[nH]1)N1CCC2(CC1)CC(Oc1cccnc1)CO2 (centres unmarked)	-4.425	3.609	2.649	0.5863
Cc1ccc([C@@H]2CN(S(=O)(=O)c3ccccc3)C[C@H]2N(C)C)cc1	13.11	2.575	10.07	-2.726
NC(=O)CN1C(=O)CO[C@H]2CN(Cc3ccccc3)C[C@H]21	21.62	0.5894	2.724	-4.043
CC1COCCN1Cc1nc(-c2ccsc2)no1 (centres unmarked)	10.71	13.38	1.137	-5.13
CN(Cc1ccsc1)c1nc(-c2ccccn2)nc2c1CCNCC2	36.99	-13.21	7.264	-2.811
C[C@H]1C(=O)NC[C@H]2CN(CCc3ccccc3)C[C@H]21	10.09	3.294	2.395	-5.141
COc1ccc(NC(=O)N2CCCC2c2ccco2)c(OC)c1 (centres unmarked)	1.087	-1.332	-2.137	-1.089
CCn1cc(-c2nn3c(C(C)C)nnc3s2)c(C)n1	9.89	2.169	1.51	3.948
CCC(O)CN1CCN(C(=O)Cc2ccc(C)nc2)CC1 (centres unmarked)	23.21	5.957	-0.7985	-8.726
CC(C)c1ncncc1C(=O)N1CCN(Cc2ccccn2)CC1	15.18	2.937	0.3579	-10.2
Cc1nccn1-c1cccc(C2CCCN(C3CCCCC3)C2)n1 (centres unmarked)	55.56	2.778	2.779	1.421
Cn1cc(C(=O)N2CCCCC2CCc2ccccc2)cn1 (centres unmarked)	5.479	12.73	7.105	0
O=C(NCCCn1nc2ccccn2c1=O)NC(C1CC1)C1CC1	18.07	-0.3797	6.013	0.6798
CCNc1cc2c(nn1)CCN(C(=O)c1ccc(-n3cnnc3)cc1)C2	10.71	3.929	0.9068	-9.479
CN(Cc1ccccc1)C(=O)c1nc(S(C)(=O)=O)n2ccccc12	-2.128	1.295	1.969	5.419
NC(=O)NC(=O)CN1CCN(CC2CC2)c2ccccc21	31.25	0.7212	-3.563	-1.712
Cc1cccc(C(C(=O)NCCn2cccc2)N(C)C)c1 (centres unmarked)	14.29	-2.236	2.519	2.147
C[C@@H]1CN(Cc2ccccc2F)CC(C(N)=O)O1 (some centres unmarked)	5	8.612	-2.161	-0.4854
O=C(N[C@H]1CN(C2CCOCC2)C[C@@H]1C1CC1)c1ccon1	6.25	-10.63	2.513	-1.687
COCCO[C@H]1CCN(C(=O)c2cnoc2C)[C@H]1Cc1cnn(C)c1	21	0.3708	-0.4936	-5.534
O=C1CNc2ncnc(N3CCN(c4ccccc4F)CC3)c2N1	25.93	2.806	5.293	1.4
Cc1cc(NC(=O)N(CCO)Cc2ccsc2)no1	1.786	-3.169	0.1218	-0.1883
Cc1cnn(CC2CCCN2C(=O)Cc2ccc3c(c2)CCO3)c1 (centres unmarked)	7.447	11.79	-20	2.297
N#Cc1ccc(F)cc1Cn1cnc(C2CCC2)cc1=O	-2.439	3.69	-9.313	-1.039
Cc1nc(C)n(CC2CN(CC(=O)Nc3cccnc3)CCO2)n1 (centres unmarked)	22.12	-2.11	4.538	-4.171
CCc1cc(=O)n(CC(=O)N2CCCC2)c(-c2ccccc2)n1	13.58	4.337	3.106	2.292
CCC(=O)N1CCC(Cc2ccccc2-c2ccncc2)(C(=O)NC)C1 (centres unmarked)	14	2.354	1.711	-

Once more, the final 2:

structure,LiHisRS,CoaBC,PfKRS1,MtTrpRS
CCc1cc(=O)n(CC(=O)N2CCCC2)c(-c2ccccc2)n1,13.58,4.337,3.106,2.292
CCC(=O)N1CCC(Cc2ccccc2-c2ccncc2)(C(=O)NC)C1 (centres unmarked),14,2.354,1.711,-

Source: ChEMBL document CHEMBL3988442, “University of Dundee, Small-Polar-MMV Screening Library” (2021).